Results published in patent US5912227A, “Method of enhancing nutrient uptake” (North Carolina State University, priority 1995, dated 1999).

Assay: Food intake, fasting body weight, small intestinal weight and length in treated mice
Assay type: in vivo, swiss-webster mice
Conditions: for Food Intake / Fasting Body Weight / Length Small Intestine / Weight Small Intestine: mice; for Food Intake: s.c. once a day for three days (PYY, TGFα 300 μg/kg; somatostatin 120 μg/kg), feed per mouse over the three day period; for Fasting Body Weight / Length Small Intestine / Weight Small Intestine: s.c. once a day for three days; for Fasting Body Weight: after fast, prior to sacrifice; for Length Small Intestine / Weight Small Intestine: after sacrifice; for small intestine weight, comparison between treatment groups: mouse, in vivo

| Compound | Food Intake [g] | Fasting Body Weight [g] | Length Small Intestine [mm] | Weight Small Intestine [g] | small intestine weight, comparison between treatment groups |
| --- | --- | --- | --- | --- | --- |
| C[C@H](N)C(=O)NCC(=O)N[C@H]1CSSC[C@@H](C(=O)O)NC(=O)[C@H](CO)NC(=O)[C@H]([C@@H](C)O)NC(=O)[C@H](Cc2ccccc2)NC(=O)[C@H]([C@@H](C)O)NC(=O)[C@H](CCCCN)NC(=O)[C@H](Cc2c[nH]c3ccccc23)NC(=O)[C@H](Cc2ccccc2)NC(=O)[C@H](Cc2ccccc2)NC(=O)[C@H](CC(N)=O)NC(=O)[C@H](CCCCN)NC1=O [Somatostatin, somatostatin] | 9.1 | 27.7 | 467 | 2.127 |  |
| PYY: 36 amino acid hormonal peptide, produced by "L type" endocrine cells; member of the pancreatic polypeptide family [Peptide YY] | 9.2 | 27.5 | 454 | 1.652 | no significant differences |
| Transforming Growth Factor alpha [TGFα] | 11.0 | 28.8 | 461 | 1.999 | no significant differences |
